No constants are given. Whether binding was seen depends on the method and setting. Binding seen in cells or lysates may run through a third protein. Some entries that bind do so weakly or less than the wild type.
Experiments:
[1] = target: murine protein tyrosine kinase p56lck (wild type) (murine) (UniProt P06240); test: coimmunoprecipitation with 53A2
[2] = target: murine protein tyrosine kinase p56lck (wild type) (murine) (UniProt P06240); test: coimmunoprecipitation with 53A2 from HeLa cells, in vitro kinase labeling
[3] = target: murine protein tyrosine kinase p56lck (wild type) (murine) (UniProt P06240); test: coimmunoprecipitation with 53A2, in vitro kinase labeling, V8 protease peptide mapping
[4] = target: murine protein tyrosine kinase p56lck (wild type) (murine) (UniProt P06240); test: coimmunoprecipitation with 53A2 from Sf-21 cells coexpressing both, in vitro kinase labeling
[5] = target: murine protein tyrosine kinase p56lck (wild type) (murine) (UniProt P06240); test: coimmunoprecipitation with 53A2 from CTLL-2 lysate, in vitro kinase labeling

Chains of the proteins cited; added tags and fusions are not shown. Lines headed by an entry give the natural chain unless they say otherwise; changes in a name come on top. Residues count along the entry.
UniProt P06240, residues 2-509: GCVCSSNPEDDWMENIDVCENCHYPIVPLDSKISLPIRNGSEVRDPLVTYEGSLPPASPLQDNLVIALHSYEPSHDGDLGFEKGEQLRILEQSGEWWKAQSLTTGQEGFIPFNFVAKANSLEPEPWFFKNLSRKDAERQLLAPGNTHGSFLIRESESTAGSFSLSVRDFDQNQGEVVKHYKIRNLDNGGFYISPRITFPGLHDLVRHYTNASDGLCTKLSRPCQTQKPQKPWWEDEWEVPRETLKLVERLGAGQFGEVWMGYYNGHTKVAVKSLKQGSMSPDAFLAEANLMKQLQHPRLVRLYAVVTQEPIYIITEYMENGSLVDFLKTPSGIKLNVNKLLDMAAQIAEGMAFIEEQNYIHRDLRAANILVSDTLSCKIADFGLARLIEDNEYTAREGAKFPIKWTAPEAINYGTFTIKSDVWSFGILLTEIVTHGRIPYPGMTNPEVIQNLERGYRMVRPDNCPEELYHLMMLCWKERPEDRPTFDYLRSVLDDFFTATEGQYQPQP
UniProt P20334: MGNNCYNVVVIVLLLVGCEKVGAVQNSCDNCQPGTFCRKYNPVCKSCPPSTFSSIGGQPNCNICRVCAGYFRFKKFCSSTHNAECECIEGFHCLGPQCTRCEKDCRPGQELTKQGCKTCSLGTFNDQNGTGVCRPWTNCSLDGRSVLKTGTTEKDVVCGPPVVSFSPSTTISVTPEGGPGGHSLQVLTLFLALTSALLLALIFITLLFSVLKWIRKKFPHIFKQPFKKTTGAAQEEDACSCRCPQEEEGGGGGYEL

Measured: binding

mouse receptor protein 4-1BB (full length) (from UniProt P20334 24-256)
binds: all assays above

From patent US6974863 (INDIANA UNIVERSITY RESEARCH AND TECHNOLOGY, dated 2005)
